Reference: PubChem BioAssay AID330 (DTP/NCI, 2004)
The list is a part of this screen's results and no random one: it is rich in T/C values a quarter to a half above the control, in often repeated tests (any T/C) and in doses without a T/C. Further doses and runs are listed elsewhere. T/C: endpoint of the treated group in % of that of the vehicle group. Some doses have a count of surviving animals in place of a T/C: the source files T/C as zero there, which appears to mark a toxic dose or a test without result, not a measured value. Some survivor counts are full or nearly so, which does not show that the dose was tolerated: the source hardly ever lists a survival T/C far under the control, and the zero likely stands for such cases as well. Survivors were counted at the toxicity check, usually on the fifth day, unless a day is given; later deaths do not show. Schedules are NCI's codes, read here as Q, the interval in days (D) or hours (H), X, the number of doses. Some doses were run more than once; the results are listed from low to high. For survival time, the PubChem record calls one and a half times the control and up active, and a quarter to a half above the control has no call in these data; cut-offs in other NCI protocols can differ. Some T/C values are followed by the survivors on the day toxicity was checked, most often the fifth; without a count, all were alive then.

Tested on: P388 leukemia ip, CD2F1 mice, survival T/C
Assay: NCI In Vivo Anticancer Drug Screen. Data for tumor model P388 Leukemia (intraperitoneal) in CD2F1 (CDF1) mice
Settings: T/C endpoint: median survival time, higher T/C = longer survival
[1] = dose: 100.0 mg/kg/injection, schedule: Q01DX009 (ip), vehicle: water
[2] = dose: 100.0 mg/kg/injection, schedule: Q01DX009 (ip), vehicle: saline with Tween-80
[3] = dose: 200.0 mg/kg/injection, schedule: Q01DX009 (ip), vehicle: saline with Tween-80
[4] = dose: 200.0 mg/kg/injection, schedule: Q01DX009 (ip), vehicle: Klucel (hydroxypropylcellulose) (HPC)
[5] = dose: 400.0 mg/kg/injection, schedule: Q04DX003 (ip), vehicle: saline with Tween-80
[6] = dose: 25.0 mg/kg/injection, schedule: Q01DX005 (ip), vehicle: Klucel (hydroxypropylcellulose) (HPC)
[7] = dose: 50.0 mg/kg/injection, schedule: Q01DX005 (ip), vehicle: Klucel (hydroxypropylcellulose) (HPC)
[8] = dose: 100.0 mg/kg/injection, schedule: Q01DX005 (ip), vehicle: Klucel (hydroxypropylcellulose) (HPC)
[9] = dose: 200.0 mg/kg/injection, schedule: Q01DX005 (ip), vehicle: Klucel (hydroxypropylcellulose) (HPC)
[10] = dose: 200.0 mg/kg/injection, schedule: Q01DX005 (ip), vehicle: saline with Tween-80
[11] = dose: 400.0 mg/kg/injection, schedule: Q01DX001 (ip), vehicle: saline with Tween-80
[12] = dose: 240.0 mg/kg/injection, schedule: Q01DX005 (ip), vehicle: saline with Tween-80
[13] = dose: 50.0 mg/kg/injection, schedule: Q01DX009 (ip), vehicle: saline
[14] = dose: 100.0 mg/kg/injection, schedule: Q01DX009 (ip), vehicle: saline
[15] = dose: 200.0 mg/kg/injection, schedule: Q01DX009 (ip), vehicle: saline
[16] = dose: 120.0 mg/kg/injection, schedule: Q01DX005 (ip), vehicle: saline with Tween-80

Structure (SMILES): c1cc2c3c(c1)c1cc4c(cc1c[n+]3CCC2)OCO4
- T/C (dose: 6.25 mg/kg/injection, schedule: Q01DX009 (ip), vehicle: water): 126 % of control
- T/C (dose: 12.5 mg/kg/injection, schedule: Q01DX009 (ip), vehicle: water): 126 and 131 % of control
- T/C (dose: 18.8 mg/kg/injection, schedule: Q01DX009 (ip), vehicle: water): 132 % of control
- survivor count (dose: 50.0 mg/kg/injection, schedule: Q01DX009 (ip), vehicle: water): 0 of 6
- survivor count [1]: 0 of 6
- survivor count (dose: 200.0 mg/kg/injection, schedule: Q01DX009 (ip), vehicle: water): 0 of 6

Structure (SMILES): CCCCCC(CN(C)C)C(=O)/C=C/c1ccc(Cl)cc1 (stereo not drawn)
- survivor count [2]: 0 of 6

Structure (SMILES): CC1=Nc2cc(Cl)c(Cl)cc2N(C)/C1=C/C1=C(Cl)C(=O)c2ccccc2C1=O
- survivor count [3]: 1 of 6

Structure (SMILES): Nc1cccc(SC(CC(=O)c2ccc(-c3ccccc3)cc2)c2ccco2)c1 (stereo not drawn)
- survivor count [4]: 5 of 6

Structure (SMILES): CCCCCCCCCCCCCCCCCCCCCC(=O)OC
- survivor count [5]: 6 of 6

Structure (SMILES): COc1ccc2nc(Cl)c(CBr)c(CBr)c2c1
- survivor count [6]: 1 of 5
- survivor count [7]: 1 of 5
- survivor count [8]: 2 of 5
- survivor count [9]: 0 of 5

Structure (SMILES): CN(C)c1ccc(/C=C/c2ccnc3ccccc23)cc1Cl
- survivor count (dose: 50.0 mg/kg/injection, schedule: Q04DX003 (ip), vehicle: saline with Tween-80): 6 of 6
- survivor count (dose: 100.0 mg/kg/injection, schedule: Q04DX003 (ip), vehicle: saline with Tween-80): 3 of 6
- survivor count (dose: 200.0 mg/kg/injection, schedule: Q04DX003 (ip), vehicle: saline with Tween-80): 0 of 6
- survivor count [5]: 0 of 6

Structure (SMILES): Cc1ccc(Sc2cccc3c(C)c4cccc5c4c(c23)C[S+]5c2ccc(C)cc2)cc1 (stereo not drawn)
- T/C (dose: 4.5 mg/kg/injection, schedule: Q01DX009 (ip), vehicle: saline with Tween-80): 127 % of control [5 of 6 alive]

Structure (SMILES): O=C(Nc1cccc2c1C(=O)c1cccc(Nc3cccc4c3C(=O)c3cccc(NC(=O)c5ccccc5)c3C4=O)c1C2=O)c1ccccc1
- survivor count [10]: 5 of 5

Structure (SMILES): O=C1CCC2(c3ccccc3)CCCN=C2N1 (stereo not drawn)
- survivor count [11]: 0 of 6

Structure (SMILES): CC1=CC(Cc2ccccc2)N(C)CC1C (stereo not drawn)
- survivor count [12]: 0 of 6

Structure (SMILES): CS(=O)(=O)OCCCCCCCCCCCN1CCOCC1
- survivor count [10]: 2 of 6

Structure (SMILES): Cc1cccn2ccnc12
- T/C [13]: 125 % of control
- survivor count [14]: 4 of 6
- survivor count [15]: 0 of 6

Structure (SMILES): COc1ccc2c(c1)CCn1c(C)c(COC(=O)NC3CCCCC3)c(COC(=O)NC3CCCCC3)c1-2
- T/C (dose: 6.25 mg/kg/injection, schedule: Q01DX009 (ip), vehicle: distilled water + Tween-80): 137 % of control
- T/C (dose: 12.5 mg/kg/injection, schedule: Q01DX009 (ip), vehicle: distilled water + Tween-80): 134 and 144 % of control
- T/C (dose: 25.0 mg/kg/injection, schedule: Q01DX009 (ip), vehicle: distilled water + Tween-80): 137 and 143 % of control
- survivor count (dose: 100.0 mg/kg/injection, schedule: Q01DX009 (ip), vehicle: distilled water + Tween-80): 6 of 6
- survivor count (dose: 200.0 mg/kg/injection, schedule: Q01DX009 (ip), vehicle: distilled water + Tween-80): 3 of 6

Structure (SMILES): N#C/C(=N\Nc1cccc(C(F)(F)F)c1)C(N)=O
- survivor count [9]: 0 of 5

Structure (SMILES): CCOC(=O)N/N=C/c1ccc[nH]1
- survivor count (dose: 15.0 mg/kg/injection, schedule: Q01DX005 (ip), vehicle: saline with Tween-80): 6 of 6
- survivor count (dose: 30.0 mg/kg/injection, schedule: Q01DX005 (ip), vehicle: saline with Tween-80): 0 of 6
- survivor count (dose: 60.0 mg/kg/injection, schedule: Q01DX005 (ip), vehicle: saline with Tween-80): 0 of 6
- survivor count [16]: 0 of 6
- survivor count [12]: 0 of 6

Structure (SMILES): c1ccc2c(NCC3CCNCC3)c3ccccc3nc2c1
- survivor count (dose: 100.0 mg/kg/injection, schedule: Q04DX002 (ip), vehicle: saline with Tween-80): 1 of 6

Structure (SMILES): O=c1c(Br)cc(CN2CCOCC2)cc(CN2CCOCC2)c1O
- survivor count [3]: 6 of 6

Structure (SMILES): CC1(C)CC(=O)C([Se]C2=C(O)CC(C)(C)CC2=O)=C(O)C1
- survivor count [13]: 5 of 6
- survivor count [14]: 2 of 6
- survivor count [15]: 0 of 6

Structure (SMILES): CC(N)C(O)c1ccc(O)cc1 (stereo not drawn)
- survivor count (dose: 600.0 mg/kg/injection, schedule: Q01DX009 (ip), vehicle: saline): 2 of 6 and 3 of 6

Structure (SMILES): O=C(O)C1CCC[N-]1.[Cl][Pt][Cl] (stereo not drawn)
- T/C (dose: 44.0 mg/kg/injection, schedule: Q04DX003 (ip), vehicle: saline): 134 % of control
- T/C (dose: 66.0 mg/kg/injection, schedule: Q04DX003 (ip), vehicle: saline): 138 % of control
- survivor count (dose: 100.0 mg/kg/injection, schedule: Q04DX003 (ip), vehicle: water): 2 of 6

Structure (SMILES): C=C1C(=O)O[C@H]2[C@H]1[C@H](OC(=O)/C(C)=C\C)CC(=C)[C@@H]1[C@H](O)[C@H]3O[C@@]3(C)[C@@]12O
- T/C [13]: 127 % of control

Structure (SMILES): C[n+]1ccc(Nc2ccc(NC(=O)c3ccc(Nc4cc[n+](C)c5ccc([N+](=O)[O-])cc45)cc3)cc2)cc1
- T/C (dose: 64.0 mg/kg/injection, schedule: Q01DX009 (ip), vehicle: saline): 129 % of control
- survivor count (dose: 128.0 mg/kg/injection, schedule: Q01DX009 (ip), vehicle: saline): 6 of 6

Structure (SMILES): Cn1c2cc([N+](=O)[O-])ccc2c(=O)c2c(O)cc3c(c21)C=CC(C)(C)O3
- survivor count [11]: 5 of 6

Structure (SMILES): Clc1nn2cnnc2c2ncccc12
- survivor count (dose: 100.0 mg/kg/injection, schedule: Q01DX009 (ip), vehicle: Klucel (hydroxypropylcellulose) (HPC)): 0 of 6
- survivor count [4]: 0 of 6

Structure (SMILES): O=C1C2=C(Nc3cc(Cl)ccc3N2)OC1c1ccc(Cl)c(Cl)c1 (stereo not drawn)
- survivor count [8]: 6 of 6

Structure (SMILES): CCOC(=C\C(=O)NC)/C=C/c1ccc([N+](=O)[O-])cc1
- survivor count [6]: 6 of 6
- survivor count [7]: 6 of 6
- survivor count [8]: 6 of 6
- survivor count [9]: 6 of 6

Structure (SMILES): Nc1ccc2[se]ccc2c1
- survivor count [14]: 6 of 6

Structure (SMILES): C=C(C)[C@@H]1CCc2c(O)c(O)c(=O)cc(C)c2C1
- T/C (dose: 14.0 mg/kg/injection, schedule: Q01DX009 (ip), vehicle: saline): 127 % of control

Structure (SMILES): CNc1ncn(-c2c(C)cccc2C)c(=O)n1
- survivor count [16]: 4 of 6
- T/C [12]: 128 % of control
- T/C (dose: 480.0 mg/kg/injection, schedule: Q01DX005 (ip), vehicle: saline with Tween-80): 133 % of control [5 of 6 alive]

Structure (SMILES): C=C1[C@H]2C[C@H]2[C@]2(C)C[C@@H]3OC(=O)C(C)=C3C[C@@H]12
- survivor count (dose: 19.5 mg/kg/injection, schedule: Q01DX005 (ip), vehicle: Klucel (hydroxypropylcellulose) (HPC)): 6 of 6

Structure (SMILES): O=C1c2ccccc2C(=O)N1CC[P+](C1CCCCC1)(C1CCCCC1)C1CCCCC1
- T/C (dose: 3.13 mg/kg/injection, schedule: Q01DX009 (ip), vehicle: saline with Tween-80): 125 % of control
- T/C (dose: 12.5 mg/kg/injection, schedule: Q01DX009 (ip), vehicle: saline with Tween-80): 125 % of control
- T/C (dose: 25.0 mg/kg/injection, schedule: Q01DX009 (ip), vehicle: saline with Tween-80): 125 % of control
- survivor count [1]: 1 of 6

Structure (SMILES): CNc1ncnc2c1cnn2C
- survivor count [2]: 4 of 6
- survivor count [3]: 0 of 6
- survivor count (dose: 400.0 mg/kg/injection, schedule: Q04DX003 (ip), vehicle: saline): 2 of 6

Structure (SMILES): N#CN(Cc1ccccc1)C(c1ccccc1)(c1ccccc1)c1ccccc1.[Cl][Sn]([c]1ccccc1)([c]1ccccc1)[c]1ccccc1
- survivor count (dose: 50.0 mg/kg/injection, schedule: Q01DX005 (ip), vehicle: saline with Tween-80): 0 of 6
- survivor count (dose: 100.0 mg/kg/injection, schedule: Q01DX005 (ip), vehicle: saline with Tween-80): 0 of 6
- survivor count [10]: 0 of 6
